Results on 110 substances are retold here after the supplement of paper PMC5949888.

± gives the standard deviation of the averaged measurements. Most values lie at the floor of the assay. Slopes are relative: functional sequences can read slightly below zero.

The test system of the series is Saccharomyces cerevisiae PS128 hsf1 delta, HSF1(1-493) fusion. Briefly: growth estimate (transactivation domain function in HSF1 fusion, heat-shock survival) (a.u. (slope of normalised read count over time)); higher = stronger growth at 37°C, i.e. more transactivation activity. To be noted: library: random library.
For the substance RSLSERPRVRFLPVLKNIRS, the growth estimate is less than -0.25.

Take ESECD: the growth estimate was less than -0.25.

As for EVNALYGHETPTLGLADLEP, the growth estimate was less than -0.25.

As for RIERTQEQERYSGVASSCRA, the growth estimate was less than -0.25.

Consider SHKRHLGLSQVVVQQNDARS, for which the growth estimate is less than -0.25.

On to ADLDRCLARTNRWTSKVRLV, for which the growth estimate is less than -0.25.

For the substance RYVLNGGSHVPSVARNALAP, the growth estimate is less than -0.25.

For SYDLGKGQSRGGCGVGLVMS, the growth estimate was less than -0.25.

In the case of SERLIKDFSARPKTIDQAAP, the growth estimate was less than -0.25.

As for VATVNLATSNPATVSVLGVG, the growth estimate was less than -0.25.

For the substance RSIPVRIAGERSQMFRSLH, the growth estimate is less than -0.25.

For VSGHGDIAFREDPTGAKRAY, the growth estimate is less than -0.25.

Consider DRVSY, for which the growth estimate was less than -0.25.

Consider EFGNTANAADGLRDFDSMKN, for which the growth estimate is less than -0.25.

Consider RKAQRGRWKTSFRIASLALL, for which the growth estimate is less than -0.25.

In the case of PLVLNLK, the growth estimate was less than -0.25.

As to TIVPYADSEIGLSCAA, the growth estimate was less than -0.25.

For the substance LCQPEMRRVKPCQMREGQRG, the growth estimate is less than -0.25.

LAAVCREVLELQNRGRAIQY: the growth estimate was less than -0.25.

For the substance GKTV, the growth estimate was less than -0.25.

As for HTASVRIPVALLGRLSPRFE, the growth estimate was less than -0.25.

IADAGDAPSREATSPISSAH: the growth estimate is less than -0.25.

Take SSMLEGDLGRCPNVCHLRSS: the growth estimate was less than -0.25.

RPTLRAPLFAGDE: the growth estimate is less than -0.25.

Take ARISGWRGSE: the growth estimate was -0.241.

In the case of TLGYRVGVFLWQNTL, the growth estimate is less than -0.25.

Take VNVAGLRR: the growth estimate is less than -0.25.

As for APSFRHFCGETEKLSGIAVA, the growth estimate is less than -0.25.

Take QTCIVFVLALSTHTPPPRRG: the growth estimate was less than -0.25.

Regarding FTYSFAVTNDKGSAHRL, the growth estimate is less than -0.25.

As to QICDWPQSLAG, the growth estimate is less than -0.25.

On to LSD, for which the growth estimate was less than -0.25.

VTGRSIQCNVCVTVSSVGDS: the growth estimate is less than -0.25.

Take QRGRPTDLPWTPSYHYMAER: the growth estimate was less than -0.25.

For the substance AWSPTVGLRRGCDPLSARTE, the growth estimate is less than -0.25.

Turning to SFEWGTGRNHLLETRCVSRR, the growth estimate was less than -0.25.

In the case of GWPEAIYGDFDPLQTSGVHG, the growth estimate is less than -0.25.

Turning to KRRIPKSARPPARPSRLRDV, the growth estimate is less than -0.25.

In the case of RPYVAGVEKRSGKNYA, the growth estimate was less than -0.25.

Consider LRDTYMLHDVITVDL, for which the growth estimate was less than -0.25.

As for ILDISYRFVKR, the growth estimate was less than -0.25.

For the substance PTI, the growth estimate is -0.236 ± 0.024.

EGSATKRNQLDASAGVWRCR: the growth estimate was less than -0.25.

As for SCITSTVGYAKPEGERRAR, the growth estimate was less than -0.25.

In the case of RLGSLTKHNVSQQKVHRPTN, the growth estimate was less than -0.25.

On to MGDGLLFPSKLINYDD, for which the growth estimate was less than -0.25.

On to LPF, for which the growth estimate is less than -0.25.

On to FLQGKGVGPRPVSSLCFAIT, for which the growth estimate was less than -0.25.

For EHYVQLNYIYRGKGLGRSAD, the growth estimate was less than -0.25.

As to LLA, the growth estimate is less than -0.25.

For LRLDTG, the growth estimate was less than -0.25.

Regarding FLRMKASRLWPVHRMTSTVT, the growth estimate is less than -0.25.

With DRGVEMPHCKSVQQLRRTSR, the growth estimate is -0.136.

Take ECVLRLWWGALIVKARVAAC: the growth estimate is less than -0.25.

For the substance GRFTVACIRPIVPARSL, the growth estimate is less than -0.25.

In the case of PGLTSPIARDRGLVIRYDSC, the growth estimate was less than -0.25.

With CQVPRWCKCSCRSVRQHCGR, the growth estimate was less than -0.25.

SSKSSLVHGRWRGIAVATST: the growth estimate was less than -0.25.

Turning to KLLVKAIAWLCFVNSRGLTS, the growth estimate is less than -0.25.

With LRSVWTSAIARPVYAMIAAV, the growth estimate was less than -0.25.

Consider RWLCLARTPTG, for which the growth estimate was less than -0.25.

For QAIPGVMDLGALVLSS, the growth estimate was less than -0.25.

In the case of AGIYVELVDPCMQAVNQFES, the growth estimate was less than -0.25.

For the substance VMSILAGTRRSALRPSTLLS, the growth estimate was less than -0.25.

Turning to TFRLRGPLWGSACKVHCRHM, the growth estimate is less than -0.25.

As to NGVCIDRNKPVSGSICCGRE, the growth estimate is less than -0.25.

Regarding RSWGLVP, the growth estimate was less than -0.25.

With WLLNSHGLIFALYAGEKWH, the growth estimate was less than -0.25.

For DRRAKDGRLELWRG, the growth estimate is less than -0.25.

With LSSESG, the growth estimate was less than -0.25.

Consider FWEA, for which the growth estimate is less than -0.25.

On to AVTERKNAYRLQRLVTSGSV, for which the growth estimate was less than -0.25.

As for HQTSGR, the growth estimate is less than -0.25.

As to HEYLLQGADTRS, the growth estimate was less than -0.25.

Turning to RSPRGCKPGPRFALTLRKGQ, the growth estimate is less than -0.25.

Take LDVCMWLSNALRSFPRIKPL: the growth estimate was less than -0.25.

For the substance GVYGLVMVDCILVRLRKFRL, the growth estimate is less than -0.25.

For PSPGPGINTRSFGFR, the growth estimate was less than -0.25.

For the substance TESHFSIMNICRKPNWYQEK, the growth estimate was less than -0.25.

Regarding RMVDRCDPVALAVSLRMSLT, the growth estimate is less than -0.25.

With DQVLVFWGGTSTVPLSGGSL, the growth estimate was less than -0.25.

Take DHPTLVSVVVNRVWFNRDGK: the growth estimate was less than -0.25.

Turning to FVTATPEVRKRLLG, the growth estimate is less than -0.25.

In the case of TRFLR, the growth estimate is less than -0.25.

In the case of VESEVEQAGHFFGRTTWCRT, the growth estimate is less than -0.25.

As for GKAVSFIRIATTLGTGTSSR, the growth estimate was less than -0.25.

For TRMKRPCVKMGSCLAAWIAS, the growth estimate was less than -0.25.

On to GRVVYKEGGPGSEDSSEGSL, for which the growth estimate is less than -0.25.

In the case of TRSTAAMDNFHCASFVGGYA, the growth estimate was less than -0.25.

In the case of RPVVCGREIRPPRTR, the growth estimate is less than -0.25.

Turning to KIVRDKVGPLIRQINESADG, the growth estimate is less than -0.25.

For the substance RASFYQTVCTRIG, the growth estimate is less than -0.25.

Take LHPGQSVLSAGDLYECFFTS: the growth estimate was less than -0.25.

QHRD: the growth estimate was less than -0.25.

For TLI, the growth estimate is less than -0.25.

On to TCLKIWVVGILLETSR, for which the growth estimate was less than -0.25.

On to EGRAFDADRASGHLVTRNAA, for which the growth estimate is less than -0.25.

In the case of GDITGFRTAFKEREDARP, the growth estimate is -0.158.

KHGRLPRFIRE: the growth estimate was less than -0.25.

As for VEVSG, the growth estimate was less than -0.25.

Regarding PRVRIAATTLPAIAPTFRSG, the growth estimate is less than -0.25.

As to HDNKARQKTNGLSTGLSLHN, the growth estimate is less than -0.25.

On to FARLYHTSLLRRAVPVLTKR, for which the growth estimate is less than -0.25.

Take DDTHLGEIGRTPSVH: the growth estimate was less than -0.25.

Take DNVNYLALSRFQSPCLTAS: the growth estimate was less than -0.25.

On to GRF, for which the growth estimate was less than -0.25.

As for MRCGR, the growth estimate was -0.243.

In the case of NRRKAFSSQNNKHSYG, the growth estimate was less than -0.25.

Turning to SSVGLEGG, the growth estimate is less than -0.25.

For the substance LIFTYFCSGRSALKSFQPRA, the growth estimate is less than -0.25.
